Results deposited as PubChem BioAssay AID652243 (Drosophila RNAi Screening Center, 2013)

- Aim: 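Fly genes required for human androgen receptor driven transcription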 (primary screen)
- Cell system: Drosophila S2R+ cells
- Knock-down reagent: long dsRNA against Drosophila genes
- Timing: 72 h (48 h, then 24 h hormone)
- Treatment: synthetic androgen R1881 at 10 nM for 24 h
- Read-out: 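Firefly light from an androgen-responsive reporter and Renilla control light per well, raw and unnormalised, for each of two replicates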
- Reading the numbers: firefly reporter light: higher = more light from androgen-responsive reporter; Renilla control light: higher = more constitutive control signal (cell number, transfection)
- Hit rule: 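Hit when the log firefly-to-Renilla ratio dropped or increased by a fixed fold versus the mean of GFP or LacZ controls across duplicate plates; lowering cut given as 1.5 and as 3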
- Meaning of the calls: active = hit: reporter lowered or raised; inactive = no hit
The deposit covers about 24,000 reagents; this is a random part of those that have a named target and a result. Of all reagents, 246 (1%) are marked active. 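Plates not normalised; calls are printed but the firefly/Renilla ratio behind them is not deposited; fold cut for lowering reported inconsistently.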 Raw values vary from plate to plate and are shown uncorrected. A number with no mark means an inactive call. Reagents against one gene are numbered here. Not given: the amount of reagent.

Gene	reagent no.	firefly reporter light, replicate 1	firefly reporter light, replicate 2	Renilla control light, replicate 1	Renilla control light, replicate 2
Osi4 (Osiris 4)	1	37257	76823	1.20e6	1.49e6
Kif19A (Kinesin family member 19A)	1	2.36e5	2.24e5	2.07e6	2.79e6
Kif19A (Kinesin family member 19A)	2	4.30e5	3.37e5	4.50e5	4.94e5
mfas (midline fasciclin)	1	39631	43519	2.42e5	3.30e5
mfas (midline fasciclin)	2	2.74e5	2.98e5	9.50e5	1.06e6
tilB (touch insensitive larva B)	1	1.82e5	1.80e5	5.89e5	4.32e5
CG17127	1	2.04e5	2.35e5	1.63e6	1.77e6
CG17127	2	3.36e5	3.28e5	1.68e6	1.69e6
Chchd2 (Coiled-coil-helix-coiled-coil-helix domain containing 2)	1	7.25e5	8.74e5	1.77e6	1.79e6
Chchd2 (Coiled-coil-helix-coiled-coil-helix domain containing 2)	2	12234	9850	14812	14812
CG42337	1	1.30e5	1.03e5	1.43e6	1.48e6
CG42337	2	7.59e5	7.34e5	1.84e6	1.79e6
CG42337	3	4.26e5	4.63e5	1.09e6	4.92e5
Agpat3 (1-Acylglycerol-3-phosphate O-acyltransferase 3)	1	43154	51371	5.64e5	4.47e5
amos (absent MD neurons and olfactory sensilla)	1	75959	71157	1.10e6	9.60e5
amos (absent MD neurons and olfactory sensilla)	2	8.41e5	1.26e6	8.61e5	8.88e5
amos (absent MD neurons and olfactory sensilla)	3	6.55e5	8.22e5	1.31e6	1.29e6
CG16984	1	1.24e5	1.33e5	1.71e6	1.67e6
CG16984	2	3.04e5	3.08e5	1.05e6	1.09e6
Obp83ef (Odorant-binding protein 83ef)	1	1.05e5	98617	2.02e6	1.79e6
Obp83ef (Odorant-binding protein 83ef)	2	4.91e5	3.26e5	1.16e6	7.03e5
CG14401	1	2.27e5	1.53e5	2.13e6	2.26e6
CG14401	2	1.07e6	8.37e5	1.21e6	1.09e6
CG14401	3	9.36e5	8.50e5	8.07e5	8.37e5
ATP7	1	4.21e5	5.03e5	2.66e6	2.77e6
CG43338	1	5.41e5	6.25e5	6.29e5	6.50e5
CG5846	1	6.27e5	7.50e5	1.21e6	1.45e6
CG7333	1	3.71e5	4.43e5	3.24e6	3.73e6
CG40551 (retired record)	1	5.61e5	5.77e5	3.67e6	3.47e6
CG30414	1	3.52e5	2.89e5	2.31e6	2.09e6
CG30414	2	5.83e5	5.54e5	1.16e6	1.22e6
Cnep1r2 (CTD nuclear envelope phosphatase 1 regulatory subunit 2)	1	8.62e5	5.70e5	2.13e6	2.08e6
CalpC (Calpain C)	1	5.43e5	4.59e5	3.42e6	2.51e6
Elo68alpha (Elongase 68alpha)	1	8.81e5	7.42e5	2.06e6	1.95e6
Orc4 (Origin recognition complex subunit 4)	1	9.97e5	5.51e5	1.23e6	1.07e6
Orc4 (Origin recognition complex subunit 4)	2	5.46e5	6.93e5	1.29e6	1.47e6
Tengl4 (Testis EndoG-Like 4)	1	1.37e5	2.10e5	2.72e6	3.30e6
wol (wollknaeuel)	1	7.17e5	1.04e6	2.62e6	2.36e6
wol (wollknaeuel)	2	2.62e5	2.28e5	6.05e5	2.55e5
CG32214	1	5.08e5	4.95e5	9.96e5	9.97e5

In a second layout: entries from further up
| Gene | reagent no. | firefly reporter light, replicate 1 | firefly reporter light, replicate 2 | Renilla control light, replicate 1 | Renilla control light, replicate 2 |
| --- | --- | --- | --- | --- | --- |
| Osi4 (Osiris 4) | 1 | 37257 | 76823 | 1.20e6 | 1.49e6 |
| Kif19A (Kinesin family member 19A) | 1 | 2.36e5 | 2.24e5 | 2.07e6 | 2.79e6 |
| Kif19A (Kinesin family member 19A) | 2 | 4.30e5 | 3.37e5 | 4.50e5 | 4.94e5 |
| mfas (midline fasciclin) | 1 | 39631 | 43519 | 2.42e5 | 3.30e5 |
| mfas (midline fasciclin) | 2 | 2.74e5 | 2.98e5 | 9.50e5 | 1.06e6 |
